# Non-standard residues stand in square brackets, D forms with d. *: point of attachment. Trt = c1ccc(C(c2ccccc2)(c2ccccc2)*)cc1; hArg = N=C(N)NCCCC[C@H](N)C(=O)O; OtBu = CC(C)(C)O*; Mpa = O=C(O)CCS
# Assay: general procedure: solution-phase peptide synthesis; EDAC.HCl/HOBT
# Details: for purity (crude or final not stated): HPLC
substance,measurement,setting,value
Eptifibatide,crude HPLC purity,cyclisation step,90%
same,purity (crude or final not stated),oxidative folding step,90%
same,final HPLC purity,"purification step, acetate, run 1",99.5%
same,final HPLC purity,"purification step, acetate, run 2",99.5%
same,final HPLC purity,"purification step, acetate, run 3",99.4%
H-D(OtBu)WPC(Trt)-NH2 [listing 1 of 2 here],crude HPLC purity,coupling step,95.2%
same,final HPLC purity,coupling step,96%
H-D(OtBu)WPC(Trt)-NH2 [listing 2 of 2 here],final HPLC purity,"coupling step, run 1",95%
same,final HPLC purity,"coupling step, run 2",96%
H-GD(OtBu)WPC(Trt)-NH2,purity (crude or final not stated),coupling step,95%
[Mpa](Trt)[hArg]GD(OtBu)-OH,purity (crude or final not stated),coupling step,95%
[Mpa](Trt)[hArg]GD(OtBu)WPC(Trt)-NH2,crude HPLC purity,coupling step,90%
same,final HPLC purity,coupling step,96%
same,purity (crude or final not stated),coupling step,95%
[Mpa][hArg]GDWPC-NH2 (cysteine pairing not given here),crude HPLC purity,late stage modification step,85%

# — US20140163203 (published 2014)
